# No constants are given. Whether binding was seen depends on the method and setting. For some of these results: In cells and extracts the contact can be indirect. Some binding calls cover weakened binding; strength is not graded here. Sequences can lack the tags named with a protein.
# Amino acid sequences for entries named in this document (tags omitted). Residues count along the entry.
# UniProt Q63604, residues 454-821: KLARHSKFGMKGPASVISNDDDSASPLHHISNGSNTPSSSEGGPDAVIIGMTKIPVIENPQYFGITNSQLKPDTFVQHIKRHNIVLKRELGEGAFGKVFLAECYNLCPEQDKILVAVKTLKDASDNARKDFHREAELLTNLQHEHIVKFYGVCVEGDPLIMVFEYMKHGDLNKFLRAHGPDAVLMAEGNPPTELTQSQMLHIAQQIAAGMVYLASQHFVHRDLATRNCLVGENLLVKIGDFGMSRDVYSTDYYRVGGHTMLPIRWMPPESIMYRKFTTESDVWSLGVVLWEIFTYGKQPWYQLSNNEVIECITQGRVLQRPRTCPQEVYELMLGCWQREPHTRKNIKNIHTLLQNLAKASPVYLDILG
# T1: GFP-Snapin (UniProt O95295)
# T1 sequence: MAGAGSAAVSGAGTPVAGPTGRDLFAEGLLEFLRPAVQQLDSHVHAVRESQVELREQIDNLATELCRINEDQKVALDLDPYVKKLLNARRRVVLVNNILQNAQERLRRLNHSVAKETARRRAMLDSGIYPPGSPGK
# B1: SIPA1L2-470-838-tRFP (domain or fragment, UniProt Q5JCS6 470-838)
# chain: REKVKRYIIEHVDLGAYYYRKFFYGKEHQNYFGIDENLGPVAVSIRREKVEDPREKEGSQFNYRVAFRTSELTTLRGAILEDAVPSTARHGTARGLPLKEVLEYVIPELSIPCLRQAANSPKVPEQLLKLDEQGLSFQHKIGILYCKAGQSTEEEMYNNETAGPAFEEFLDLLGQRVRLKGFSKYRAQLDNKTDSTGTHSLYTTYKDFELMFHVSTLLPYMPNNRQQLLRKRHIGNDIVTIVFQEPGALPFTPKNIRSHFQHVFVIVKVHNPCTENVCYSVGVFRSKDVPPFVPPIPKGVTFPRTGVFRDFLLAKGINAENAAHKSEKFRAMATRTRHEYLKDLAENFVTTTTVDTSAKFSFITLGAKK
# B2: PDZ-SIPA1L2-tRFP (domain or fragment, UniProt Q5JCS6 948-1025)
# chain: ETVEMTLRRNGLGQLGFHVNFEGIVADVEPFGFAWKAGLRQGSRLVEICKVAVATLTHEQMIDLLRTSVTVKVVIIQP
# B3: RapGAP domain of SIPA1L2 (aa 624-813), expressed in HEK293T (domain or fragment, UniProt Q5JCS6 624-813)
# chain: EMYNNETAGPAFEEFLDLLGQRVRLKGFSKYRAQLDNKTDSTGTHSLYTTYKDFELMFHVSTLLPYMPNNRQQLLRKRHIGNDIVTIVFQEPGALPFTPKNIRSHFQHVFVIVKVHNPCTENVCYSVGVFRSKDVPPFVPPIPKGVTFPRTGVFRDFLLAKGINAENAAHKSEKFRAMATRTRHEYLKDL
# B4: GST-ActII-SIPA1L2-1026-1650 (domain or fragment, UniProt Q5JCS6 1026-1650)
# chain: HEDGSPRRGCSELCRIPMVEYKLDSEGTPCEYKTPFRRNTTWHRVPTPALQPVSRASPVPGTPDRLQCQPLLQQAQAAIPRSTSFDRKLPDGTRSSPSNQSSSSDPGPGGSGPWRPQVGYDGCPSPLLLEPQGPGSVECDGSGDHEDLMEVGRLPETKWHGPPSKVLSSYKERALQKDGSCKDSPNKLSHIGDKSCSSHSSSNTLSSNTSSNSDDKHFGSGDLMDPELLGLTYIKGASTDSGIDTTPCMPATILGPMHLTGSRSLIHSRAEQWADAADVSGADEDPAKMYTLHGYASAISSSAADGSMGDLSEVSSHSSGSHRSGSPSTHCSKSTGSLDSSKVYIVTHSGGQQVPGAVAKPYHRQGAANKYVIGWKKSEGSPPPEEPEVTECPRIYGEMDIMSTASQHPAVVGDSVPEAQHVLSKDDFLKLMLPDSPLVEEGRRKFSFYGNLSPRRSLYRTLSDESVCSNRRGSSFASSRSSILDQALPNDILFSTTPPYHSTLPPRTHPAPSMGSLRNEFWFSDGSLSDKSKCADPGLMPLPDTAAGLDWSHLVDAARAFEGLDSDEELGLLCHHASYLDQRVASFCTLTDLQHGQELEGAPELSLCVDPTSGKEFMDTPGERS
# Key:
# [1] = molecular target: T1, GFP-Snapin; experiment: co-IP
# [2] = molecular target: MBP-TrkB-454-821 (rat) (UniProt Q63604); experiment: pull-down
Binder,binding [1],binding [2]
B1,binds,–
B2,binds,–
B3,binds,–
B4,–,no binding (tested: 2 µg)
